According to US6552056B2 (priority 1999, dated 2003):
Some results were stated once for a whole list of compounds, not compound by compound. At least one compound was matched to its structure with a doubt left.

How the values were obtained:
Assay type in all cases: in vivo
[1] = tested on: Phytophthora infestans; details: 500 ppm active compound, spray on tomato (Regina) seedlings, inoculated 5 days after spraying, evaluated 4 days after inoculation
[2] = tested on: Pyricularia oryzae (C race); details: 8 kg/ha active compound, water surface application, paddy rice (Kusabue), inoculated 7 days after treatment, evaluated 7 days after inoculation
[3] = tested on: Pyricularia oryzae; details: 500 ppm active compound, foliar spray on paddy rice (Kusabue) seedlings, inoculated 5 days after application, evaluated 7 days after inoculation

Structure (SMILES)	control value [1]	control value [2]	control value [3]
CCOC(=O)CNC(=O)c1snc(Cl)c1Cl [Compound 1]	more than 80%	more than 80%	more than 80%
COC(=O)CNC(=O)c1snc(Cl)c1C#N [Compound 2]		more than 80%	
CCOC(=O)CN(C)C(=O)c1snc(Cl)c1Cl [Compound 3]	more than 80%	more than 80%	more than 80%
COC(=O)C(C)NC(=O)c1snc(Cl)c1Cl (stereo not drawn) [Compound 4]	more than 80%	more than 80%	more than 80%
CC(NC(=O)c1snc(Cl)c1Cl)C(=O)O (stereo not drawn) [Compound 5]	more than 80%	more than 80%	more than 80%
COC(=O)C(C)NC(=O)c1snc(Cl)c1C#N (stereo not drawn) [Compound 6]	more than 80%	more than 80%	
COC(=O)C(C)(C)NC(=O)c1snc(Cl)c1Cl [Compound 7]	more than 80%	more than 80%	more than 80%
CC(C)(NC(=O)c1snc(Cl)c1Cl)C(=O)O [Compound 8]	more than 80%	more than 80%	more than 80%
CC(C)C(NC(=O)c1snc(Cl)c1Cl)C(=O)O (stereo not drawn) [Compound 13, 2-[(3,4-dichloro-5-isothiazolyl)-carboxamido]-3-methylbutyric acid]	more than 80%	more than 80%	more than 80%
COC(=O)C(NC(=O)c1snc(Cl)c1C#N)C(C)C (stereo not drawn) [Compound 14]		more than 80%	
COC(=O)C(NC(=O)c1snc(C)c1Cl)C(C)C (stereo not drawn) [Compound 16]	more than 80%	more than 80%	more than 80%
COC(=O)C(NC(=O)c1cc(C)ns1)C(C)C (stereo not drawn) [Compound 17]			more than 80%
COC(=O)C(CC(C)C)NC(=O)c1snc(Cl)c1Cl (stereo not drawn) [Compound 20]	more than 80%		more than 80%
COC(=O)C(CC(C)C)NC(=O)c1snc(C)c1Cl (stereo not drawn) [Compound 21]		more than 80%	
CCCCCC(NC(=O)c1snc(Cl)c1Cl)C(=O)OC (stereo not drawn) [Compound 30, methyl 2-[(3,4-dichloro-5-isothiazolyl)-carboxamide]-heptanoate]	more than 80%	more than 80%	more than 80%
COC(=O)C(CCl)NC(=O)c1snc(Cl)c1Cl (stereo not drawn) [Compound 32]	more than 80%	more than 80%	more than 80%
COC(=O)C(CO)NC(=O)c1snc(Cl)c1Cl (stereo not drawn) [Compound 33]	more than 80%	more than 80%	more than 80%
COC(=O)C(C)(CO)NC(=O)c1snc(Cl)c1Cl (stereo not drawn) [Compound 34]		more than 80%	more than 80%
COC(=O)C(CO)NC(=O)c1snc(C)c1Cl (stereo not drawn) [Compound 35]		more than 80%	more than 80%
CCOC(=O)C(CS)NC(=O)c1snc(Cl)c1Cl (stereo not drawn) [Compound 38]	more than 80%	more than 80%	more than 80%
COC(=O)C(NC(=O)c1snc(Cl)c1Cl)C(C)O (stereo not drawn) [Compound 39]		more than 80%	more than 80%
COC(=O)C(CCSC)NC(=O)c1snc(Cl)c1Cl (stereo not drawn) [Compound 40]	more than 80%		
